Biological target: NaChBac (Halalkalibacterium halodurans (Bacillus halodurans), UniProt Q9KCR8)
Type: cell-based
Conditions: hek 293 cells

Sequences of proteins named here, by UniProt entry; tags and fusion partners are left off. Residues count along the entry.
UniProt Q9KCR8, 1-274: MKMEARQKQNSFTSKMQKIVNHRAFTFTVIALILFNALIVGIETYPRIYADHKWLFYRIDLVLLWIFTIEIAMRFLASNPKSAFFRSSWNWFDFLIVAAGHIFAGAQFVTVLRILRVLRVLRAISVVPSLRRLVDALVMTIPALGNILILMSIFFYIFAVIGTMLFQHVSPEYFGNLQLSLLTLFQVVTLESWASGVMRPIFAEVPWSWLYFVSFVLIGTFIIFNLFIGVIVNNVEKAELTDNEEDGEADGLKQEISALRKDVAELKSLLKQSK

Cc1ccccc1C(OCCN(C)C)c1ccccc1 (stereo not shown) [Orphenadrine]
% of block in NaChBac: 76.6±1.1%
